IC50 data for one compound are collected here from publication PMC12481249.

This assay has as its system MCF-7 Br Ca cell line. In words: MTT cytotoxicity (antiproliferative) assay. The note with it: Homo sapiens, MCF7, read-out: IC50 MCF-7, MTT, MCF-7 Br Ca cell line, mean ± SD (n = 3).

Turning to `CC/C(=C(\c1ccccc1)c1ccc(OCCN(C)C)cc1)c1ccccc1` [Tam, Tamoxifen, reference compound], the IC50 (usually the concentration needed to halve the response being measured) was 10.5 ± 0.23 µM.
